In publication doi:10.1101/2023.12.02.569699 (bioRxiv, 2023):
No constants are given. Whether binding was seen depends on the method and setting. Some entries that bind do so weakly or less than the wild type.

By UniProt entry, the sequences of proteins in these tests, tags left out. Residues count along the entry.
UniProt Q13263, 1-501: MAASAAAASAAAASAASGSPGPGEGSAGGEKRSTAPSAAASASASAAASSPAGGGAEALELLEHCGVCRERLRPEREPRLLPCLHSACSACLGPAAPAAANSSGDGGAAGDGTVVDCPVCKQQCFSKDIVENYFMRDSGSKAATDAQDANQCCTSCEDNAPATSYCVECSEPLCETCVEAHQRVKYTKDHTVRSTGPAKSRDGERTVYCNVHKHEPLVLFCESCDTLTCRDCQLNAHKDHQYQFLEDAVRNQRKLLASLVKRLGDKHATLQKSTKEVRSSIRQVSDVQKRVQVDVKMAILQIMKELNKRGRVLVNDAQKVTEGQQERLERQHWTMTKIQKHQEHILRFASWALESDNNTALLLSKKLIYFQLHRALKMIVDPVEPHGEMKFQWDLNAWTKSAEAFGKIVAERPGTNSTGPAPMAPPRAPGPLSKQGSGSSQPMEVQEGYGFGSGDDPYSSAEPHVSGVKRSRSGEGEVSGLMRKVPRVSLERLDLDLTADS
UniProt Q99496, whole entry: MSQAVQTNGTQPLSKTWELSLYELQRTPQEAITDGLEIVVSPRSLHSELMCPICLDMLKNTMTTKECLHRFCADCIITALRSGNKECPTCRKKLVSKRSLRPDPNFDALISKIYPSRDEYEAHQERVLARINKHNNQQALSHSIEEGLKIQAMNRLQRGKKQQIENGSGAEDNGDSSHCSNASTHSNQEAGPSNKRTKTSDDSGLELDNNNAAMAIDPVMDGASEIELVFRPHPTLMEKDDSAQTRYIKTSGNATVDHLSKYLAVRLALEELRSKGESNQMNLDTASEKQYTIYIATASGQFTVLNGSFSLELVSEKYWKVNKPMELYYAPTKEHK

What was measured:
TRIM28 (1-501) = TRIM28 (1-501) (UniProt Q13263); experiment: co-purification
RING1B (H. sapiens) = RING1B (H. sapiens) (UniProt Q99496); experiment: SEC

Row | Substance | binding (TRIM28 (1-501)) | binding (RING1B (H. sapiens))
1 | HP1β^CD(CBX7) (from UniProt P83916 1-17; Q8VDS3 8-69; P83916 73-185) | binds | –
2 | CBX7^CD(HP1β) (from UniProt Q8VDS3 1-7; P83916 18-72; Q8VDS3 70-158) | – | binds
